No constants are given. Whether binding was seen depends on the method and setting. Some entries that bind do so weakly or less than the wild type.
Assays:
[1] = target: ROR1 (recombinant protein coated on the ELISA plate in Example 11) (Homo sapiens (Human)) (UniProt Q01973); assay: ELISA, ROR1 coated on the plate, detection by HRP-conjugated anti-human Fc
[2] = target: ROR1 (recombinant protein coated on the ELISA plate in Example 11) (Homo sapiens (Human)) (UniProt Q01973); assay: ELISA: 2 ug/mL ROR1 coated on the plate, antibody titrated 3-fold from 5 ug/mL, HRP anti-human Fc, chemiluminescence (RLU)

Amino acid sequences for entries named in this document (tags omitted). A change or cut given only in a name is not applied to a line headed by its entry.
UniProt Q01973: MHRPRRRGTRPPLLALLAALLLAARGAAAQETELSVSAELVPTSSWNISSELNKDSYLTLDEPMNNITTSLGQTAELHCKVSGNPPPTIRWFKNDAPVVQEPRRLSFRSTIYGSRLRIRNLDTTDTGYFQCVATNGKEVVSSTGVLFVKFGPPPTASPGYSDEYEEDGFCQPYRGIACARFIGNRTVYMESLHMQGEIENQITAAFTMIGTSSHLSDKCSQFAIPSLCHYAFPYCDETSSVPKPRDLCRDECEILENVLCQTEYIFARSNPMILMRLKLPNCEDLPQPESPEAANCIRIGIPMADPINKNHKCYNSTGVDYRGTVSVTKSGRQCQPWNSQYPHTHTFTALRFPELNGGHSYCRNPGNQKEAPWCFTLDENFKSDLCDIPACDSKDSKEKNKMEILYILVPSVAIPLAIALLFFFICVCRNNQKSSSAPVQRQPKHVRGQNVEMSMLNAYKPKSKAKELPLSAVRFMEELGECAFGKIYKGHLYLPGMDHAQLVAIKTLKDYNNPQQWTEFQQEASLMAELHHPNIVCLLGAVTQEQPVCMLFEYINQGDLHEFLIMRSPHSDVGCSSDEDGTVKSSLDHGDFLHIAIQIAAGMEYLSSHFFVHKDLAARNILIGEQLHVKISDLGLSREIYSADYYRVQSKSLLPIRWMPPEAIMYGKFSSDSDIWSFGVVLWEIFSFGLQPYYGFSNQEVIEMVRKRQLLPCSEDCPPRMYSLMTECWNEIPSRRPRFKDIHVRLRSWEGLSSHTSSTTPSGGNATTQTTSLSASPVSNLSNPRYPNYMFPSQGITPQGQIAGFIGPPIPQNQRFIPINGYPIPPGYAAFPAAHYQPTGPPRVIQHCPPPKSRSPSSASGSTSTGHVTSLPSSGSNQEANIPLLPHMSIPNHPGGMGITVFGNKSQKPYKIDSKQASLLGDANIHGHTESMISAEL

B1: 1987-C05 HC co-expressed with hUCHT1-LC3 (antibody, V domains shown)
VH: EVQLVESGGGLVQPGGSLRLSCAASGFNISDYDIHWVRQAPGKGLEWVGGIDPDDGSTDYADSVKGRFTISADTSKNTAYLQMNSLRAEDTAVYYCARDYGVFDYWGQGTLVTVSS
VL: DIQMTQSPSTLSASVGDRVTITCRASQDIRNYLNWYQQKPGKAPKLLIYYTSRLHSGVPSRFSGSGSGTEYTLTISSLQPDDFATYYCQQGNTLPWTFGGGTKVEIK
binding [1]: binds
binding [2]: binds

B2: 1987-C05 HC co-expressed with hSP34-LC3 (antibody, V domains shown)
VH: B1 VH
VL: QTVVTQEPSLTVSPGGTVTLTCGSSTGAVTSGYYPNWFQQKPGQAPRGLIGGTKFLAPGTPARFSGSLLGGKAALTLSGVQPEDEAEYYCALWYSNRWVFGGGTQLTVTG
binding [1]: binds
binding [2]: binds

B3: 1944-A07 HC co-expressed with hUCHT1-LC3 (antibody, V domains shown)
VH: EVQLVESGGGLVQPGGSLRLSCAASGFNITGYYIHWVRQAPGKGLEWVGYISPNSGSTYYADSVKGRFTISADTSKNTAYLQMNSLRAEDTAVYYCARDSRRYVRPFDYWGQGTLVTVSS
VL: B1 VL
binding [1]: binds
binding [2]: binds

B4: 1944-A07 HC co-expressed with hOKT3-LC1 (antibody, V domains shown)
VH: B3 VH
VL: DIQMTQSPSSLSASVGDRVTITCSASSSVSYMNWYQQKPGKAPKRLIYDTSKLASGVPSRFSGSGSGTEYTLTISSLQPEDFATYYCQQWSSNPFTFGQGTKLEIK
binding [1]: binds
binding [2]: binds

B5: 1944-A07 HC co-expressed with hSP34-LC3 (antibody, V domains shown)
VH: B3 VH
VL: B2 VL
binding [1]: binds
binding [2]: binds

Source: patent US20240058467A1 (SUTRO BIOPHARMA, published 2024)
